Measurements as given in patent publication US9314509B2 (Ipsen Pharma S.A.S., priority 2009, dated 2016).

Experiment: general procedure: Fmoc solid-phase peptide synthesis; Rink Amide MBHA resin (Polymer Laboratories), 0.91 mmol/g; HBTU/HOBT/DIPEA
Conditions: whole synthesis; for final HPLC purity: reverse-phase HPLC, C18 column (Vydac)
[1] = scale of the general procedure 0.20 mmoles

Substance: Ac-Arg-cyclo(Cys-D-Ala-His-D-Phe-Arg-Trp-Cys)-NH2
- isolated mass: 28 mg
- final HPLC purity (scale of the general procedure 0.20 mmoles, run 1): >95%
- final HPLC purity (scale of the general procedure 0.20 mmoles, run 2): 95.1%
- crude mass (scale 0.20 mmoles): ˜100 mg
- isolated yield [1]: 24%

Substance: Ac-D-Arg-cyclo(Cys-D-Ala-His-D-Phe-Arg-Trp-Cys)-NH2
- final HPLC purity [1]: 99.2%

Substance: Ac-Tyr-Arg-cyclo(Cys-D-Ala-His-D-Phe-Arg-Trp-Cys)-NH2
- final HPLC purity [1]: 98.0%

Substance: hydantoin(Arg-Gly)-cyclo(Cys-Glu-His-D-Phe-Arg-Trp-Cys)-NH2
- final HPLC purity [1]: 99.9%
